The chains behind the UniProt entries cited, without tags or fusion partners.
UniProt P18054, whole entry, looked up: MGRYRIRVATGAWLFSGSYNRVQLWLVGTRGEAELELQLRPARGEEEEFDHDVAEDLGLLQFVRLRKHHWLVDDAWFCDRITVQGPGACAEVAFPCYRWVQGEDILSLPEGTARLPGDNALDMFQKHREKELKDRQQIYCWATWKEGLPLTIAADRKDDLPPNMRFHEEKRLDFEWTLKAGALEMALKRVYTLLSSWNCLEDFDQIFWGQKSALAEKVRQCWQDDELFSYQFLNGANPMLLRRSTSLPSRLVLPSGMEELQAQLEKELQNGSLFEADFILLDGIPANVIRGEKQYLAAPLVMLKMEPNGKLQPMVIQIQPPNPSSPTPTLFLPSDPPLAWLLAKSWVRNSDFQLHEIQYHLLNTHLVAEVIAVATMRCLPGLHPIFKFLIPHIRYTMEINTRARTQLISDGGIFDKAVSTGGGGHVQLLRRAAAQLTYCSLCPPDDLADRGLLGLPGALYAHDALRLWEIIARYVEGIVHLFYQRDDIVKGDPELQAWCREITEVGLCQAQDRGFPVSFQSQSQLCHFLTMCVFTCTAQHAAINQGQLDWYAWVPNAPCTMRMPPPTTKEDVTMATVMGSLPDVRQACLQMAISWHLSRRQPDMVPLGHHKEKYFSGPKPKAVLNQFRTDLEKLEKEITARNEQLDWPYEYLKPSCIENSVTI

Among all 580,000 compounds or so, about 6,100 (1.1%) were called active. The shares of active, inactive and inconclusive entries below differ from those in the screen. Calls follow the shape of the dose curve; as a rule, active = well fitted inhibition curve with a large enough effect; inconclusive = small, poorly fitted or top-dose-only effect, or another doubt; inactive = no such curve, though single readings can be large or run the other way. A potency beside an inconclusive call is a rough fit, not a confirmed value.
The compounds below were run against Polyunsaturated fatty acid lipoxygenase ALOX12 (Homo sapiens) (UniProt P18054) (assay: Primary qHTS assay for inhibitors of human arachidonate 12S-lipoxygenase (ALOX12): Round 2). Conditions: purified 12hLO, xylenol orange hydroperoxide absorbance; activity change, negative = inhibition: at 108 µM (top of the series) unless noted.
Method in brief: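 Purified human 12hLO (150 nM final) in 25 mM Hepes, 0.01% Triton X-100, pH 7.0 was preincubated 15 min at room temperature with compound. Then 40 uM arachidonic acid was added, 30 min. Hydroperoxide was read by Fe-XO absorbance ratio 573/405 nm.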
`COc1cc(S(=O)(=O)N2CCN=C2c2ccccc2)c(OC)cc1Cl` was tested, and the “activity change, negative = inhibition” value was inactive: -3.08%. In the case of `CC(=O)Nc1ccc(NCC(=O)NCc2ccc(Cl)cc2)c(C(F)(F)F)c1`, the Potency is reported as inconclusive: 79.4 µM [inhibitor, partial curve, poor fit]. `CCOC1CCCc2oc(-c3ccc(N(C)C)cc3)c(C(=O)OC)c21` (configuration not stated) was tested, and the Potency was inconclusive: 50.1 µM [inhibitor, partial curve, poor fit]. For `O=C1NCCCC2c3c(cc(Br)c(O)c3Br)OC12N1CCCCC1` (configuration not stated), the Potency was inconclusive: 44.7 µM [inhibitor, partial curve, poor fit]. For `O=C(O)/C(=C\c1cn(-c2ccccc2)nc1-c1cccnc1)NC(=O)c1ccccc1`, the Potency was inconclusive: 4.47 µM [inhibitor, partial curve, poor fit]. In the case of `COc1ccc(C(=O)NC(C(=O)N2CCCC2)C2CCN(C(=O)c3ccc(OC)cc3)CC2)cc1` (configuration not stated), the “activity change, negative = inhibition” value is reported as inactive: 52.1%. `O=S(=O)(NC[C@@H]1CCNC[C@H]1O)c1ccc(OC(F)(F)F)cc1` was tested, and the “activity change, negative = inhibition” value was inactive: 60.8%. `OC(CNCCC(c1ccccc1)c1ccccc1)COc1ccccc1` (configuration not stated) was tested, and the Potency was inconclusive: 79.4 µM [inhibitor, single point]. `Nc1nc(CN2CCN(c3ccccn3)CC2)nc(Nc2ccc(Cl)cc2)n1` was tested, and the “activity change, negative = inhibition” value was inactive: -22.6%. In the case of `Cc1ccc(-c2nc(CC(=O)Nc3ccc4c(c3)C(=O)N3CCC[C@H]3C(=O)N4)cs2)cc1`, the Potency is reported as inconclusive: 25.1 µM [inhibitor, full curve, poor fit]. With `Cc1ccc(C(C)C)c(OCC(O)CN2CCc3ccccc3C2)c1` (configuration not stated) the “activity change, negative = inhibition” value was inactive: -44.5%. With `Cc1ccc(N(CC(=O)NCC(O)c2ccccc2)S(=O)(=O)c2ccc(C)cc2)cc1` (configuration not stated) the Potency was inconclusive: 44.7 µM [inhibitor, partial curve, poor fit]. `CCNc1nc(NC(N)=S)nc(NC(C)(C)C)n1` was tested, and the Potency was inconclusive: 39.8 µM [inhibitor, partial curve]. In the case of `COc1cc(OC)c(NC(=O)Cn2cnc3sc(C)c(S(=O)(=O)N4CCOCC4)c3c2=O)cc1Cl`, the Potency is reported as inconclusive: 112 µM [inhibitor, single point]. With `CCC1Cc2[nH]c(=S)[nH]c(=O)c2C(c2ccc(F)cc2)O1` (configuration not stated) the Potency was inconclusive: 39.8 µM [inhibitor, partial curve, poor fit]. With `Cc1nnc2ccc(N3CCC(C(=O)Nc4ccc5c(c4)OCO5)CC3)nn12` the “activity change, negative = inhibition” value was inactive: -1.94%. In the case of `CN(C)S(=O)(=O)c1ccc(C(=O)NCC[N+]2(C)CCCCCC2)o1`, the Potency is reported as inconclusive: 56.2 µM [inhibitor, partial curve, poor fit]. For `Cc1cc(C)n2c(=S)[nH]nc2n1`, the Potency was inconclusive: 0.501 µM [inhibitor, full curve, poor fit]. `CC1(Cc2ccc(Cl)c(Cl)c2)C(=O)Nc2ccc(S(=O)(=O)NC3CCCCC3)cc21` (configuration not stated) was tested, and the Potency was inconclusive: 100 µM [inhibitor, single point]. With `O=c1[nH]c(N2CCc3ccccc3C2)nc2c1CCN(Cc1ccncc1)CC2` the “activity change, negative = inhibition” value was inactive: 12%. For `COc1ccc(CCNc2oc(-c3ccc(OC)cc3)nc2C#N)cc1`, the Potency was inconclusive: 100 µM [inhibitor, partial curve, poor fit]. In the case of `CCc1ccc(NS(=O)(=O)c2ccc3[nH]cc(C(=O)NCCCOC(C)C)c(=O)c3c2)cc1`, the Potency is reported as inconclusive: 56.2 µM [inhibitor, partial curve, poor fit]. `Cc1ccc(-c2nn(-c3ccccc3)cc2NC(=O)CCl)cc1` was tested, and the Potency was inconclusive: 44.7 µM [inhibitor, partial curve, poor fit]. With `CCOC(=O)c1cnc(SCc2cccc3ccccc23)nc1N` the “activity change, negative = inhibition” value was inactive: 0%. For `COc1ccc(-n2c(SCC(=O)N3CCc4ccccc43)nc3c(c2=O)SCC3)cc1`, the Potency was inconclusive: 70.8 µM [inhibitor, partial curve, poor fit]. With `Cc1cc2nc(-c3ccccc3)c(Cc3cccc(F)c3)n2c(C)c1Br` the Potency was inconclusive: 63.1 µM [inhibitor, partial curve, poor fit]. With `CC(=O)Nc1ccc(S(=O)(=O)Nc2cc3c(cc2C(C)=O)OCO3)cc1` the Potency was inconclusive: 112 µM [inhibitor, partial curve, poor fit]. For `COc1ccc(C2C3=C(CC(C)(C)CC3=O)Nc3nc(-c4cccc(O)c4)nn32)cc1` (configuration not stated), the Potency was inconclusive: 112 µM [inhibitor, single point]. For `CC(C)n1c(CN2CCN(Cc3ccccc3)CC2)nc2c1c(=O)n(C)c(=O)n2C`, the “activity change, negative = inhibition” value was inactive: -9.97%. `Cc1coc2c1C(=O)C(=O)c1c-2ccc2c(C)cccc12` was tested, and the Potency was inconclusive: 0.611 µM [inhibitor, full curve]. `O=C(NCCN1CCC(n2c(=O)[nH]c3ccccc32)CC1)c1cccc(F)c1` was tested, and the Potency was active: 44.7 µM. For `CN1CCNc2nc(COc3ccc(F)cc3)n(Cc3ccccc3)c2C1=O`, the “activity change, negative = inhibition” value was inactive: 31% [at 176 µM]. For `COC(=O)c1cccc(NC(=O)Nc2cc(-c3nc4ccccc4o3)ccc2OC)c1`, the Potency was inconclusive: 112 µM [inhibitor, single point]. With `COc1cc(=O)n2c(c1C(=O)Nc1ccc(C(F)(F)F)cc1)CCCC2` the “activity change, negative = inhibition” value was inactive: 36.7%. With `CCOC(=O)CSC1=C(C#N)C(=O)NC2(CCCCC2)S1` the Potency was inconclusive: 20 µM [inhibitor, partial curve, poor fit]. With `Cn1cnc(S(=O)(=O)N2CCC3(CC2)N(CC2CC2)C(=O)CS3=O)c1` (configuration not stated) the “activity change, negative = inhibition” value was inactive: 45.1%. `COc1cccc(C(=O)Nc2oc3ccccc3c(=O)c2-c2ccc(Cl)cc2)c1` was tested, and the “activity change, negative = inhibition” value was inactive: 3.35%. In the case of `CCC1(CC)Cc2ccccc2C(CC(=O)N2CCOCC2)=N1`, the Potency is reported as inconclusive: 8.91 µM [inhibitor, full curve, poor fit]. `Clc1ccccc1Nc1nnc(-c2ccncc2)s1` was tested, and the “activity change, negative = inhibition” value was inactive: 0.319%. With `COc1ccc(C2=NN(C(N)=S)C(c3ccccc3)C2)cc1` (configuration not stated) the Potency was inconclusive: 44.7 µM [inhibitor, partial curve, poor fit]. In the case of `Cc1ccc(S(=O)(=O)N2CCN(C(=O)CSc3nc(N)cc(=O)[nH]3)CC2)c(C)c1`, the Potency is reported as inconclusive: 11.2 µM [inhibitor, full curve, poor fit]. With `CCOC(=O)c1ccc(NC(=O)c2nc3ccccc3nc2N2CCCC2)cc1` the “activity change, negative = inhibition” value was inactive: 8.31%. For `CCN1CC(c2ccccc2)CC2(CCN(C(=O)c3cnn(C)c3)CC2)C1` (configuration not stated), the “activity change, negative = inhibition” value was inactive: 15.4%. With `COc1ccc(CCNCC(O)COc2cccc(Br)c2)cc1OC` (configuration not stated) the Potency was inconclusive: 3.98 µM [inhibitor, full curve, poor fit]. With `O=C(N[C@@H]1CN(Cc2c[nH]c3ccccc23)C[C@H]1CO)c1ccccc1` the Potency was inconclusive: 15.8 µM [inhibitor, full curve]. For `CCN(Cc1ccccc1)S(=O)(=O)c1ccc(-c2coc(C)n2)cc1`, the Potency was inconclusive: 79.4 µM [inhibitor, partial curve, poor fit]. `CCC(=O)Nc1ccc(-c2nc3ccc(C)cc3o2)cc1` was tested, and the Potency was inconclusive: 44.7 µM [inhibitor, partial curve, poor fit]. `CCNC(=O)c1cc(-c2ccc(OC)cc2OC)nc2ccccc12` was tested, and the Potency was active: 8.91 µM. With `CCOC(=O)C1=C(C)Nc2nc(SCC)nn2C1c1ccc(OC)cc1` (configuration not stated) the “activity change, negative = inhibition” value was inactive: -17.5%. With `C/C=C/c1ccc(OCCn2cncn2)c(OC)c1` the Potency was inconclusive: 3.55 µM [inhibitor, single point]. With `CC(OC(=O)c1cc(C2CC2)nn1-c1ccccc1)C(=O)Nc1ccc2c(c1)OCCO2` (configuration not stated) the “activity change, negative = inhibition” value was inactive: -12.7%. `Cc1nn(Cc2ccccc2)c(C)c1[C@@H]1C=C[C@@H](NC(=O)NC2CCCCC2)C1` was tested, and the Potency was inconclusive: 22.4 µM [inhibitor, full curve]. For `COC(=O)C1CCCN1C(C(=O)NC1CCCCC1)c1ccc(Cl)cc1` (configuration not stated), the Potency was inconclusive: 79.4 µM [inhibitor, single point]. In the case of `C=C(Br)CN1CCOCC1`, the Potency is reported as inconclusive: 7.08 µM [inhibitor, partial curve, poor fit]. In the case of `O=C(CCCc1ccccc1)NCCS(=O)(=O)N1CCN(c2ccccc2F)CC1`, the “activity change, negative = inhibition” value is reported as inactive: 6.54%. In the case of `O=C(C[C@@H]1CCNC[C@@H]1Cc1cc(-c2ccc(F)cc2)on1)NCc1ccco1`, the Potency is reported as inconclusive: 11.2 µM [inhibitor, full curve, poor fit]. In the case of `NC(N)=NCCCS(=O)(=O)Nc1ccc(Nc2c3ccccc3nc3cc([N+](=O)[O-])ccc23)cc1`, the Potency is reported as inconclusive: 39.8 µM [inhibitor, partial curve]. In the case of `CCNC(=S)NNC(=O)c1cc(-c2cc(C)ccc2C)nc2ccccc12`, the Potency is reported as inconclusive: 50.1 µM [inhibitor, partial curve, poor fit]. `NS(=O)(=O)c1cccc(C(=O)OCC(=O)NC2CCCc3ccccc32)c1` (configuration not stated) was tested, and the Potency was inconclusive: 126 µM [inhibitor, single point]. `CCCCCCn1nc(C(=O)OCC(=O)N(C)c2ccccc2)c2ccccc2c1=O` was tested, and the Potency was inconclusive: 28.2 µM [inhibitor, partial curve, poor fit]. For `O=C(CSc1nnc(-c2cnccn2)n1-c1ccccc1)Nc1ccc2c(c1)OCO2`, the “activity change, negative = inhibition” value was inactive: -7.16%. With `CCOC(=O)c1nnn2c1nc(N1CCN(C)CC1)c1ccccc12` the “activity change, negative = inhibition” value was inactive: 0%. `Cc1nnc(NC(=O)CSc2ncn(-c3ccccc3)n2)s1` was tested, and the Potency was inconclusive: 15.8 µM [inhibitor, partial curve, poor fit]. For `COc1ccc(NS(=O)(=O)c2ccc3nc(-c4ccccc4)[nH]c3c2)cc1`, the Potency was inconclusive: 39.8 µM [inhibitor, partial curve, poor fit]. With `Cc1ccc(C(=O)NCCNc2nc3cc(C)c(C)cc3cc2C)cc1` the “activity change, negative = inhibition” value was inactive: -12.5%. In the case of `O=C(COC(=O)C1(c2ccc(F)cc2)CCCC1)Nc1ccc([N+](=O)[O-])cc1C(F)(F)F`, the “activity change, negative = inhibition” value is reported as inactive: 10.4%. With `COc1cc(OC)c(C2CC(=O)N3CN(c4ccccc4)CSC3=C2C#N)cc1OC` (configuration not stated) the Potency was active: 2.82 µM.

Reference: PubChem BioAssay AID1671190 (National Center for Advancing Translational Sciences (NCATS), 2021)
% is scaled to controls: 0 for no effect and ±100 for the full control effect; potency is read from the fitted curve at half-maximal effect.
